Measured values as given in paper PMC4444300.
Results are given in words; binding and its absence hold for the method and conditions named. Binding seen in cells or lysates may run through a third protein. Some binding calls cover weakened binding; strength is not graded here. For some assays here: Sequences can lack the tags named with a protein.

Amino acid sequences for entries named in this document (tags omitted). A change or cut given only in a name is not applied to a line headed by its entry. Chains listed by the source or under a name are the forms on record and can include a tag or linker.
myeloid zinc finger-1 (MZF-1), endogenous (human (endogenous in SK-Hep-1)) (P28698-2, form named): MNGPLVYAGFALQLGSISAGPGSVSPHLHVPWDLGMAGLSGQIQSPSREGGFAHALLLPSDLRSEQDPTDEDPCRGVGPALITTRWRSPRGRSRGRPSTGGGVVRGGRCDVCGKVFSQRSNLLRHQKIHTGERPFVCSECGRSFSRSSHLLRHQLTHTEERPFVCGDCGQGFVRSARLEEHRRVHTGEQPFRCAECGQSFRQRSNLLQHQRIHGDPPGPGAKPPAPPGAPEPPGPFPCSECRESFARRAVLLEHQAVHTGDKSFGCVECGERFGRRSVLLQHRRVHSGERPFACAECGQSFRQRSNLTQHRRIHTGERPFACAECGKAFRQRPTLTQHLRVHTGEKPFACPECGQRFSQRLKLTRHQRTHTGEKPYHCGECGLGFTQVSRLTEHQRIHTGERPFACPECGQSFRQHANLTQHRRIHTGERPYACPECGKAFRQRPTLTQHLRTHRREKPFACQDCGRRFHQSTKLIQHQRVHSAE
FLAG-MZF-1ΔDBD (MZF-1 1–72 aa, DNA-binding deficient) (P28698-2, form named): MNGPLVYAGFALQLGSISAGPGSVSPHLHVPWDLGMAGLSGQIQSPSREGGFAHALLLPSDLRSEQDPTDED

Legend:
[1] = molecular target: T1, Ets-like protein-1 (Elk-1), endogenous (human (endogenous in SK-Hep-1)) (UniProt P19419); test: co-IP; endogenous proteins of SK-Hep-1 cells; RIPA lysate, IP with anti-MZF-1, anti-Elk-1 or control rabbit IgG, immunoblot with the antibody of the counterpart
T1 sequence: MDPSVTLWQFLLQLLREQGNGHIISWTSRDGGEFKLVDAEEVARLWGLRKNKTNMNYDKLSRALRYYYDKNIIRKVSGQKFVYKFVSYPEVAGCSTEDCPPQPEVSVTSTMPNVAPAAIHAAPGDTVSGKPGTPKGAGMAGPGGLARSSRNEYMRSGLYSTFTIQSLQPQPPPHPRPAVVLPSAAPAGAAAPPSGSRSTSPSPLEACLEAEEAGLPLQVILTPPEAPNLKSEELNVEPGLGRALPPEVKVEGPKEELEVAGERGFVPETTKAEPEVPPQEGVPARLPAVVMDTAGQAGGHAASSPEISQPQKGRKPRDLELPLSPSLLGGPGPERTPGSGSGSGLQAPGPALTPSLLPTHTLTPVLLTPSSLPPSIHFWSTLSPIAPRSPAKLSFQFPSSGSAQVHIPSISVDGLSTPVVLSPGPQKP

[2] = molecular target: T2, c-Myc-Elk-1ΔDBD (Elk-1 87–428 aa, DNA-binding deficient) (human) (UniProt P19419); test: co-IP; SK-Hep-1 cells transfected with FLAG-MZF-1ΔDBD (5 μg) or c-Myc-Elk-1ΔDBD (5 μg); IP with anti-FLAG or anti-Myc, immunoblot with anti-Elk-1 or anti-MZF-1
T2 sequence: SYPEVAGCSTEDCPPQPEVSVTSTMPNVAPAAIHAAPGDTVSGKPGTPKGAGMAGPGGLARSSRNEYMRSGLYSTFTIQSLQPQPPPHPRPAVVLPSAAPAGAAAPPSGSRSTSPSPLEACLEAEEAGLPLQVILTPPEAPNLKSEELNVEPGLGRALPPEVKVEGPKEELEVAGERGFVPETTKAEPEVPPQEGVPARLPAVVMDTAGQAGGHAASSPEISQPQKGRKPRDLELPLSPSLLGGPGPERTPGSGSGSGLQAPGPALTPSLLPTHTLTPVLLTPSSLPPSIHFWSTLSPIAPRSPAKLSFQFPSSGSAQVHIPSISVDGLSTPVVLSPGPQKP

[3] = molecular target: myeloid zinc finger-1 (MZF-1), endogenous (human (endogenous in SK-Hep-1)) (UniProt P28698); test: co-IP; endogenous proteins of SK-Hep-1 cells; RIPA lysate, IP with anti-MZF-1, anti-Elk-1 or control rabbit IgG, immunoblot with the antibody of the counterpart
[4] = molecular target: myeloid zinc finger-1 (MZF-1), endogenous (human (endogenous in SK-Hep-1)) (UniProt P28698); test: co-IP; unpublished ('preparing for publication'); constructs and conditions not told
[5] = molecular target: FLAG-MZF-1ΔDBD (MZF-1 1–72 aa, DNA-binding deficient) (human) (UniProt P28698); test: co-IP; SK-Hep-1 cells transfected with FLAG-MZF-1ΔDBD (5 μg) or c-Myc-Elk-1ΔDBD (5 μg); IP with anti-FLAG or anti-Myc, immunoblot with anti-Elk-1 or anti-MZF-1

Question: What does the source list for “myeloid zinc finger-1 (MZF-1), endogenous (from UniProt P28698-2 1-485)”?
Answer: binding [1]: binds; binding [2]: binds

B1: Ets-like protein-1 (Elk-1), endogenous (protein, UniProt P19419 1-428)
chain: MDPSVTLWQFLLQLLREQGNGHIISWTSRDGGEFKLVDAEEVARLWGLRKNKTNMNYDKLSRALRYYYDKNIIRKVSGQKFVYKFVSYPEVAGCSTEDCPPQPEVSVTSTMPNVAPAAIHAAPGDTVSGKPGTPKGAGMAGPGGLARSSRNEYMRSGLYSTFTIQSLQPQPPPHPRPAVVLPSAAPAGAAAPPSGSRSTSPSPLEACLEAEEAGLPLQVILTPPEAPNLKSEELNVEPGLGRALPPEVKVEGPKEELEVAGERGFVPETTKAEPEVPPQEGVPARLPAVVMDTAGQAGGHAASSPEISQPQKGRKPRDLELPLSPSLLGGPGPERTPGSGSGSGLQAPGPALTPSLLPTHTLTPVLLTPSSLPPSIHFWSTLSPIAPRSPAKLSFQFPSSGSAQVHIPSISVDGLSTPVVLSPGPQKP
Question: What does the source list for B1?
Answer: binding [3]: binds; binding [4]: binds; binding [5]: binds
